Measurements as given in patent US20240247072A1 (KEYMED BIOSCIENCES, published 2024).
Results are given in words; binding and its absence hold for the method and conditions named. Some entries that bind do so weakly or less than the wild type.

Molecular target: T1, human CD70, full length, on CHO cells (CHO-human CD70-B07) (human) (UniProt P32970)
T1 sequence (looked up): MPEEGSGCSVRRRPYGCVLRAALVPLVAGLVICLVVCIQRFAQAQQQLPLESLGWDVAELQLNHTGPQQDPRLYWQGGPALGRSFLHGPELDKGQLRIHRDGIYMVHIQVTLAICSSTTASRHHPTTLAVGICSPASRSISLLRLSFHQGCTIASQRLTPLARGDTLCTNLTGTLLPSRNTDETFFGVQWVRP
Assay: flow cytometry on CHO-human CD70 cells

B1: humanized antibody Ab004 (IgG1 wild type) (antibody, V domains shown)
VH: QVQLVQSGSELKKPGASVKVSCKASGYTFTNYGMNWVRQAPGQGLEWMGWINTYTGEPTYADGFTGRFVFSLDTSASTAYLQISSLKAEDTAVYFCAREEDYRYVFNYWGQGTLVTVSS
VL: DIQMTQSPSSLSASVGDRVTITCQASQDISNYLNWYQQKPGKAPKLLIYDTSRLHAGVPSRFSGSGSGTDYTFTISSLQPEDIATYFCQQGVTLPLTFGQGTKLEIK
notes: also called Ab004 IgG1 wt; h39H5 VHv2 + h39H5 VKv1
  binding: binds
